At least one compound was matched to its structure with a doubt left.
What was measured:
[1] = molecular target: PfHGXPRT (Plasmodium falciparum (isolate FCR-3 / Gambia), UniProt P20035); assay type: biochemical; conditions: decrease in Ki when N-H is replaced by phosphonoethyl
[2] = molecular target: human HGPRT (Homo sapiens (Human), UniProt P00492); test: Ki determination, spectrophotometric assay, human HGPRT; assay type: biochemical; conditions: decrease in Ki when N-H is replaced by phosphonoethyl

Protein sequences, listed by entry. Tags and fused reporters are not part of them. Lines headed by an entry give the natural chain unless they say otherwise; changes in a name come on top.
UniProt P00492: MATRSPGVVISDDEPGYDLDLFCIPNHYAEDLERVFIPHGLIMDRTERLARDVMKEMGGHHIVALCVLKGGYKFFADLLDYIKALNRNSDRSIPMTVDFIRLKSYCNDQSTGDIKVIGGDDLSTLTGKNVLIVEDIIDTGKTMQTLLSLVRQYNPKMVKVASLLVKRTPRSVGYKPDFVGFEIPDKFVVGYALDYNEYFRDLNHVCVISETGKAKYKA

Nc1nc2c(ncn2CCN(CCP(=O)(O)O)CCP(=O)(O)O)c(=O)[nH]1 [Example 11, 9-[(N,N-(Bis-2-phosphonoethyl))-2-aminoethyl]guanine]
Ki ratio (proto:phosphonatoethyl) [1]: 53-fold
Ki ratio (proto:phosphonatoethyl) [2]: 15-fold

From patent US9200020B2, “6-oxopurine phosphoribosyltransferase inhibitors” (THE UNIVERSITY OF QUEENSLAND, priority 2012, dated 2015)
